The target in this assay is mouse Jaw1 long form (Ms LJaw1) (mouse) (UniProt Q60664). Description: co-IP; FLAG Ms LJaw1 co-expressed with GFP-fused Jaw1 or mutants in HEK293 cells for 24 h; lysis in 50 mM Tris-HCl pH 7.6, 150 mM NaCl, 0.5% NP-40; anti-FLAG tag antibody beads, 4 °C, 2 h; western blot with anti-FLAG and anti-GFP antibodies.

Results are given in words; binding and its absence hold for the method and conditions named. Binding seen in cells or lysates may run through a third protein. Some entries that bind do so weakly or less than the wild type.

B1: mouse Jaw1 long form (Ms LJaw1) (protein, UniProt Q60664 1-539)
chain: MLCVKGPPEQEPEDGALDVTRGCQCPLPTEDSILGQELLDCTRMNEDQSTDENGAGHFYSESPSQLREYLTQPSSEQTSSSESTVTSSESGSDILHMASGDLDCKPLCEKEEEARAASAMQGTSLAPAAYGDYTSVGVAKAASQLEAGEELRTTENGGKGSAPGETEISMPPKASVKLVNFQQSENTSANEKEVEAEFLRLSLGLKCDWFTLEKRVKLEERSRDLAEENLKKEITNCLKLLESLTPLCEEDNQAQEIVKKLEKSIVLLSQCTARVASRAEMLGAINQESRVSRAVEVMIQHVENLKRMYAKEHAELEDLKQALLQNDRSFNSLPDEDDCQIKKRSSSLNSKPSSLRRVTIASLPRNLGNVGLVSGMENNDRFSRRSSSWRILGTKQGEHRPSLHRFISTYSWADAEDERSDVKARDAPEPQGEEAVERTRKPSLSERRSSTLAWDRGTICSSVASWVTHLQASFRRANRALWLTGLIIILIAALMSFLTGQLFQTAVEAAPTQEGDSWLSLEHILWPFTRLGHDGPPPV
In the case of B1, the binding entry was “binds”.

(Values after paper PMC7804115.)
